Patent US20200165345A1
These are yes or no findings as the source states them, for the method shown. Some entries that bind do so weakly or less than the wild type.

Experiments:
[1] = biological target: cynomolgus TrkB receptor (cynomolgus); assay: method not detailed
[2] = biological target: cynomolgus TrkB receptor (cynomolgus); assay: recombinant TrkB in heterologous cell line, primary cells or human iPSC derived cells; binding method not detailed

binding [1]	binding [2]	Binder
binds		Humanised 1G11 (antibody, human IgG1, kappa, V domains shown) VH: QVQLVQSGAEVKKPGSSVKVSCKASGYTFTSYYINWVRQAPGQGLESMGRIAPGNTYYNEIFKGRVTITADKSTSTAYMELSSLRSEDTAVYYCARRGYEGALDYWGQGTLVTVSS VL: EIVLTQSPATLSLSPGERATLSCRASQRISNNLHWYQQKPGQAPRLLIKYVSQSISGIPARFSGSGSGTDFTLTISSLEPEDFAVYYCQQSNSWPLTFGQGTKLEIKR
	binds	1G11 (antibody, V domains shown) VH: QVQLQQSGDDLVKPGASVKLSCKASGYTFTSYYINWIKQRPGQGLECIGRIAPGNTYYNEIFKGKAILTVDTSSSTAYIQLSSLSSEDSGVYFCARRGYEGALDYWGQGTSVTVSS VL: DIVLTQSPATLSVTPGDSVSLSCRASQRISNNLHWYQQKSHESPRLLIKYVSQSISGIPSRFSGSGSGTDFTLSINSVETEDFGMYFCQQSNSWPLTFGAGTKLELKR
